{"source": "PubChem BioAssay AID602196 – INSERM | 2012", "screen": "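Modifiers of cisplatin sensitivity in A549 cells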", "cell system": "human A549 lung cancer cells", "reagent": "siRNA pair against human genes", "duration": "48 h transfection before cisplatin; time from cisplatin to read-out not stated", "challenge": "cisplatin at a dose killing half of control-siRNA cells; exact dose and duration not given", "measurement": "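Cisplatin cell death as a shift from the 50% death seen with control siRNA; siRNAs toxic or growth-blocking alone scored 0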", "reading the numbers": "two-siRNA summed score (-2 to +2): higher = both siRNAs protect from cisplatin killing; -2 means both sensitise; mean protection from cisplatin (shift in death): higher = protection from cisplatin killing", "call rule": "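siRNAs harmful alone (LDH or WST-1) get 0; others get +1 for less and -1 for more cisplatin killing; genes are active when the two siRNAs give the same sign, summing to ±2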", "calls": "active = both siRNAs shift cisplatin killing the same way; inactive = no consistent shift, or siRNA harmful alone", "note": "This is a random part of about 23,000 reagents tested. 455 of all reagents (2%) were called active. 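Active includes both protection and sensitisation; some change values fall well beyond the stated -50 to +50 range.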 Further read-outs or replicates are left out here. Not given: the amount of reagent."}
{"target": "DEFB118", "two-siRNA summed score (-2 to +2)": 0, "mean protection from cisplatin (shift in death) (%)": 9.4, "Call": "inactive"}
{"target": "LOC285544", "two-siRNA summed score (-2 to +2)": 1, "mean protection from cisplatin (shift in death) (%)": 18.1, "Call": "inactive"}
{"target": "FIRRM", "two-siRNA summed score (-2 to +2)": 0, "mean protection from cisplatin (shift in death) (%)": 3.4, "Call": "inactive"}
{"target": "CHMP2B", "two-siRNA summed score (-2 to +2)": 0, "mean protection from cisplatin (shift in death) (%)": -4.3, "Call": "inactive"}
{"target": "SLCO2B1", "two-siRNA summed score (-2 to +2)": 0, "mean protection from cisplatin (shift in death) (%)": -4.9, "Call": "inactive"}
{"target": "PANK2", "two-siRNA summed score (-2 to +2)": 0, "mean protection from cisplatin (shift in death) (%)": -4.8, "Call": "inactive"}
{"target": "POU5F2", "two-siRNA summed score (-2 to +2)": 0, "mean protection from cisplatin (shift in death) (%)": 13.5, "Call": "inactive"}
{"target": "TMSB15A", "two-siRNA summed score (-2 to +2)": 0, "mean protection from cisplatin (shift in death) (%)": -2.4, "Call": "inactive"}
{"target": "LOC399789", "two-siRNA summed score (-2 to +2)": 0, "mean protection from cisplatin (shift in death) (%)": 15.3, "Call": "inactive"}
{"target": "FAM168B", "two-siRNA summed score (-2 to +2)": 0, "mean protection from cisplatin (shift in death) (%)": 1.2, "Call": "inactive"}
{"target": "NXNL2", "two-siRNA summed score (-2 to +2)": 0, "mean protection from cisplatin (shift in death) (%)": -2, "Call": "inactive"}
{"target": "LOC441828", "two-siRNA summed score (-2 to +2)": 0, "mean protection from cisplatin (shift in death) (%)": 23.3, "Call": "inactive"}
{"target": "GABARAPL2", "two-siRNA summed score (-2 to +2)": 1, "mean protection from cisplatin (shift in death) (%)": 14.5, "Call": "inactive"}
{"target": "LOC441208", "two-siRNA summed score (-2 to +2)": 0, "mean protection from cisplatin (shift in death) (%)": -2.4, "Call": "inactive"}
{"target": "SNTA1", "two-siRNA summed score (-2 to +2)": 0, "mean protection from cisplatin (shift in death) (%)": 7.4, "Call": "inactive"}
{"target": "GKN2", "two-siRNA summed score (-2 to +2)": 0, "mean protection from cisplatin (shift in death) (%)": -1.9, "Call": "inactive"}
{"target": "HTRA4", "two-siRNA summed score (-2 to +2)": 1, "mean protection from cisplatin (shift in death) (%)": 12.1, "Call": "inactive"}
{"target": "RPS27L", "two-siRNA summed score (-2 to +2)": 0, "mean protection from cisplatin (shift in death) (%)": 8.4, "Call": "inactive"}
{"target": "ZBTB22", "two-siRNA summed score (-2 to +2)": 1, "mean protection from cisplatin (shift in death) (%)": 7.7, "Call": "inactive"}
{"target": "SLN", "two-siRNA summed score (-2 to +2)": 1, "mean protection from cisplatin (shift in death) (%)": 11.5, "Call": "inactive"}
{"target": "ACTC1", "two-siRNA summed score (-2 to +2)": 0, "mean protection from cisplatin (shift in death) (%)": -0.3, "Call": "inactive"}
{"target": "ZNF831", "two-siRNA summed score (-2 to +2)": 0, "mean protection from cisplatin (shift in death) (%)": 2.3, "Call": "inactive"}
{"target": "KCNG3", "two-siRNA summed score (-2 to +2)": 1, "mean protection from cisplatin (shift in death) (%)": 11.3, "Call": "inactive"}
{"target": "LOC389019", "two-siRNA summed score (-2 to +2)": 1, "mean protection from cisplatin (shift in death) (%)": 14.6, "Call": "inactive"}
{"target": "LOC441731", "two-siRNA summed score (-2 to +2)": 0, "mean protection from cisplatin (shift in death) (%)": -1.5, "Call": "inactive"}
{"target": "ZNF34", "two-siRNA summed score (-2 to +2)": -1, "mean protection from cisplatin (shift in death) (%)": -10.5, "Call": "inactive"}
{"target": "PCMTD1", "two-siRNA summed score (-2 to +2)": 1, "mean protection from cisplatin (shift in death) (%)": -5.8, "Call": "inactive"}
{"target": "CYP3A4", "two-siRNA summed score (-2 to +2)": 0, "mean protection from cisplatin (shift in death) (%)": 1.9, "Call": "inactive"}
{"target": "PFKL", "two-siRNA summed score (-2 to +2)": 0, "mean protection from cisplatin (shift in death) (%)": -2.2, "Call": "inactive"}
{"target": "CCM2", "two-siRNA summed score (-2 to +2)": 0, "mean protection from cisplatin (shift in death) (%)": 7.4, "Call": "inactive"}
{"target": "LOC401026", "two-siRNA summed score (-2 to +2)": 0, "mean protection from cisplatin (shift in death) (%)": 9.3, "Call": "inactive"}

A run of entries taken from the entries so far, for reference:
{"target": "PANK2", "two-siRNA summed score (-2 to +2)": 0, "mean protection from cisplatin (shift in death) (%)": -4.8, "Call": "inactive"}
{"target": "POU5F2", "two-siRNA summed score (-2 to +2)": 0, "mean protection from cisplatin (shift in death) (%)": 13.5, "Call": "inactive"}
{"target": "TMSB15A", "two-siRNA summed score (-2 to +2)": 0, "mean protection from cisplatin (shift in death) (%)": -2.4, "Call": "inactive"}
